This assay deals with FLAG-tagged MARK2 (hMARK2 TV4, MAP/microtubule affinity-regulating kinase 2, 1–788) (human) (UniProt Q7KZI7). Kind of assay: affinity purification with mass spectrometry; N-terminally FLAG-tagged MARK2 TV4 or SIK2 AA overexpressed in HEK293T; cells treated with 1 μM Carfilzomib and 10 μM Forskolin or 10 μM Doxorubicin; anti-FLAG M2 magnetic beads, 3xFLAG peptide elution; MudPIT on LTQ Orbitrap Velos; endogenous partners.

Sequences of proteins named here, by UniProt entry; tags and fusion partners are left off.
UniProt Q7KZI7: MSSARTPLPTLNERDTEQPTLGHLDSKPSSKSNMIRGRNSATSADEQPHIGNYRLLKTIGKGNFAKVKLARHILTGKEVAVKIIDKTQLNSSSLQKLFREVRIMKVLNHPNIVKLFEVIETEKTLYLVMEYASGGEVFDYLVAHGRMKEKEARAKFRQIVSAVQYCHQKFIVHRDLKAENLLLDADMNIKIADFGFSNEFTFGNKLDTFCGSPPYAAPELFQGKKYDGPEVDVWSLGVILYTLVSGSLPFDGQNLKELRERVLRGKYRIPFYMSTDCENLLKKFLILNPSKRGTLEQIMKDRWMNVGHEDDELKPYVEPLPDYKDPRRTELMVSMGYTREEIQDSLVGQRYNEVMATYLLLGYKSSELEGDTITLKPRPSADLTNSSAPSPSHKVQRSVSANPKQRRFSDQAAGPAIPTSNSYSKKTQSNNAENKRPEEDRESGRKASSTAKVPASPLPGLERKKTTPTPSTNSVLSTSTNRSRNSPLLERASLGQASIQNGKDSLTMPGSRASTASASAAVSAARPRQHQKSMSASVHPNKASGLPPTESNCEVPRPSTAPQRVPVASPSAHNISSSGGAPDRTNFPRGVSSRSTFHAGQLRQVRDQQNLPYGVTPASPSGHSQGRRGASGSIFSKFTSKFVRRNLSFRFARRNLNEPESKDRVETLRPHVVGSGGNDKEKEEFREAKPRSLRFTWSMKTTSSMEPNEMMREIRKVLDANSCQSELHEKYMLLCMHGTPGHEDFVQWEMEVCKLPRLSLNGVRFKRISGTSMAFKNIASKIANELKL
UniProt Q7Z460: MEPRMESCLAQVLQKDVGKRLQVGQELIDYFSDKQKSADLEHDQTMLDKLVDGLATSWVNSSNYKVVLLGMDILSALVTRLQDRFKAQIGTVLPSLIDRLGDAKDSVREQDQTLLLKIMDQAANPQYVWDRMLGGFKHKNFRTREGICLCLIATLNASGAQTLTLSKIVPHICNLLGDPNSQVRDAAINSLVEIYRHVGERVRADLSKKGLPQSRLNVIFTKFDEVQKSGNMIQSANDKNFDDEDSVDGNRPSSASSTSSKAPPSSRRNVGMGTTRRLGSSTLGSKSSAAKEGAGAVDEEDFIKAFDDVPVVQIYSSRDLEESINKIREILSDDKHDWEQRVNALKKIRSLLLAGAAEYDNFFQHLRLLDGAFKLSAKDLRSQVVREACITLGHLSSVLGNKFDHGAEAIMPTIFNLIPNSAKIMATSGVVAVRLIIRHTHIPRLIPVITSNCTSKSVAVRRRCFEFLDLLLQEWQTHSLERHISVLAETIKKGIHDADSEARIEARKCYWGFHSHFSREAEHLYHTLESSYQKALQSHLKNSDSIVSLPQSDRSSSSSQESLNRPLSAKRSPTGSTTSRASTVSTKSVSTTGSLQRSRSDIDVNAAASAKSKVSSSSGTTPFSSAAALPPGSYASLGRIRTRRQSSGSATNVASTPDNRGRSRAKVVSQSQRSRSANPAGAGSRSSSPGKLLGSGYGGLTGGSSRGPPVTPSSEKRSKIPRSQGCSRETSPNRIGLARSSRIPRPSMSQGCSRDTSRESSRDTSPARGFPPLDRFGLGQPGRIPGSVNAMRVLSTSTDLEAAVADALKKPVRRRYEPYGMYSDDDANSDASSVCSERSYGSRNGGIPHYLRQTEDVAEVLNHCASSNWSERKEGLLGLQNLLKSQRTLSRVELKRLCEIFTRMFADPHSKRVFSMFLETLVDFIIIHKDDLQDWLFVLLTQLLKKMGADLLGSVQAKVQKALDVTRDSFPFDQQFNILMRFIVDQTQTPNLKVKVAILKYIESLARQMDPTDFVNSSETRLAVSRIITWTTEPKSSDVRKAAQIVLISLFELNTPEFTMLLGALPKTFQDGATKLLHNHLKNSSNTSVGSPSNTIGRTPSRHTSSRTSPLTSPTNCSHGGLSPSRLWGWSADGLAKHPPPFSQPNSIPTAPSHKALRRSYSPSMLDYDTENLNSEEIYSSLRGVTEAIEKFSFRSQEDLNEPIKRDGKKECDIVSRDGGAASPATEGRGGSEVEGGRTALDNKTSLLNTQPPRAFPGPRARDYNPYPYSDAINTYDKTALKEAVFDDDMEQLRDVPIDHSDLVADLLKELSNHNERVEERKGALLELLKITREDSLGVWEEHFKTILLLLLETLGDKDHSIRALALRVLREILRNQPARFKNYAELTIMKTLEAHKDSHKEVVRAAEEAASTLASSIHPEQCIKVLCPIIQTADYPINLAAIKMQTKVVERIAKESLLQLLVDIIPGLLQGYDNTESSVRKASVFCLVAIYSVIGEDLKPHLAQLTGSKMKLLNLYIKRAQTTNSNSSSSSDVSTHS

These are yes or no findings as the source states them, for the method shown. In cells and extracts the contact can be indirect. Here binding means that the protein was enriched with, or labelled near, the bait; the list need not be complete.

For “CLIP-associating protein 1 (CLASP1), endogenous (from UniProt Q7Z460 1-1538)”, the binding entry is recorded as “binds”.

B1: CLIP-associating protein 2 (CLASP2), endogenous (protein, UniProt O75122 1-1294)
chain: MAMGDDKSFDDEESVDGNRPSSAASAFKVPAPKTSGNPANSARKPGSAGGPKVGGASKEGGAGAVDEDDFIKAFTDVPSIQIYSSRELEETLNKIREILSDDKHDWDQRANALKKIRSLLVAGAAQYDCFFQHLRLLDGALKLSAKDLRSQVVREACITVAHLSTVLGNKFDHGAEAIVPTLFNLVPNSAKVMATSGCAAIRFIIRHTHVPRLIPLITSNCTSKSVPVRRRSFEFLDLLLQEWQTHSLERHAAVLVETIKKGIHDADAEARVEARKTYMGLRNHFPGEAETLYNSLEPSYQKSLQTYLKSSGSVASLPQSDRSSSSSQESLNRPFSSKWSTANPSTVAGRVSAGSSKASSLPGSLQRSRSDIDVNAAAGAKAHHAAGQSVRSGRLGAGALNAGSYASLEDTSDKLDGTASEDGRVRAKLSAPLAGMGNAKADSRGRSRTKMVSQSQPGSRSGSPGRVLTTTALSTVSSGVQRVLVNSASAQKRSKIPRSQGCSREASPSRLSVARSSRIPRPSVSQGCSREASRESSRDTSPVRSFQPLASRHHSRSTGALYAPEVYGASGPGYGISQSSRLSSSVSAMRVLNTGSDVEEAVADALKKPARRRYESYGMHSDDDANSDASSACSERSYSSRNGSIPTYMRQTEDVAEVLNRCASSNWSERKEGLLGLQNLLKNQRTLSRVELKRLCEIFTRMFADPHGKRVFSMFLETLVDFIQVHKDDLQDWLFVLLTQLLKKMGADLLGSVQAKVQKALDVTRESFPNDLQFNILMRFTVDQTQTPSLKVKVAILKYIETLAKQMDPGDFINSSETRLAVSRVITWTTEPKSSDVRKAAQSVLISLFELNTPEFTMLLGALPKTFQDGATKLLHNHLRNTGNGTQSSMGSPLTRPTPRSPANWSSPLTSPTNTSQNTLSPSAFDYDTENMNSEDIYSSLRGVTEAIQNFSFRSQEDMNEPLKRDSKKDDGDSMCGGPGMSDPRAGGDATDSSQTALDNKASLLHSMPTHSSPRSRDYNPYNYSDSISPFNKSALKEAMFDDDADQFPDDLSLDHSDLVAELLKELSNHNERVEERKIALYELMKLTQEESFSVWDEHFKTILLLLLETLGDKEPTIRALALKVLREILRHQPARFKNYAELTVMKTLEAHKDPHKEVVRSAEEAASVLATSISPEQCIKVLCPIIQTADYPINLAAIKMQTKVIERVSKETLNLLLPEIMPGLIQGYDNSESSVRKACVFCLVAVHAVIGDELKPHLSQLTGSKMKLLNLYIKRAQTGSGGADPTTDVSGQS
As to B1, the binding result is recorded as “binds”.

The values above are taken from paper PMC6890249.
